Measurements: publication doi:10.1101/2025.11.26.690747
These are yes or no findings as the source states them, for the method shown. In cells and extracts the contact can be indirect. A result given as binding can be weak or reduced; the word gives no strength. Sequences can lack the tags named with a protein.

Biological target: T1, PfBDP1-HA-DD (P. falciparum) (UniProt Q8IJ72)
T1 sequence: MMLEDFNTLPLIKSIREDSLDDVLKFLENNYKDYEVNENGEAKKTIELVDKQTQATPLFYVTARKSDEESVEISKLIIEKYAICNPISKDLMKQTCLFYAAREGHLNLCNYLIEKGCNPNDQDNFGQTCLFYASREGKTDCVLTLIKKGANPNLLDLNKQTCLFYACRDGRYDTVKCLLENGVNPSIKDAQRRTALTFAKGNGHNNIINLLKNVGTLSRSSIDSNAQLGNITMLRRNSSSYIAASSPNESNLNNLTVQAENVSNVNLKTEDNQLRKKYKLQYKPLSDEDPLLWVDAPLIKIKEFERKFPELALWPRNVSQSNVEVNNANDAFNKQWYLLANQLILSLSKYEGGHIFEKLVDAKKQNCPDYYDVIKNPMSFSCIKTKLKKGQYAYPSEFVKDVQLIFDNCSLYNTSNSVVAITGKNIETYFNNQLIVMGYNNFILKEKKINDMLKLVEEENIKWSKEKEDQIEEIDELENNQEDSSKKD
Assay: co-IP

PfAP2-I-GFP (P. falciparum)
binding: binds
